# Data as given in PubChem BioAssay AID652272 (Drosophila RNAi Screening Center, 2013)
# Assay: 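Finding fly genes that regulate Hedgehog signal transduction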 (primary screen)
# Cell system: Drosophila clone 8 (Cl8) cells
# Reagent: long dsRNA against Drosophila genes
# Read-out: 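Firefly light from a Hedgehog-responsive ptc promoter reporter and Renilla reference light, both read on a plate reader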
# Scale: firefly Hh reporter signal: higher = more ptc reporter light; Renilla reference signal: higher = more Renilla control light
# Rule for the call: 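Hit when the z-score averaged over two replicates is under -2 or over +3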
# Meaning of the calls: active = hit: reporter lowered or raised; inactive = not a hit
# In all, the deposit lists about 21,000 reagents; this is an unselected part of those with a known target gene and a result. In the full data, 503 (2.4%) are marked active. 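Raw plate light values, not normalised; calls rest on replicate z-scores that were not deposited; hits include reporter decreases as well as increases.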 Not stated in the record: the amount of reagent, the time to read-out.
"firefly Hh reporter signal, replicate 1","firefly Hh reporter signal, replicate 2","firefly Hh reporter signal, replicate 3","Renilla reference signal, replicate 1","Renilla reference signal, replicate 2",Outcome,predicted target,PubChem SID
6.29e5,3.26e5,,26978,6296,inactive,CG3655,SID104197468
72928,1.88e5,,2349,8057,inactive,CG3655,SID104197973
64304,1.42e5,,1776,6048,inactive,CG3655,SID104198269
92597,1.03e5,,4619,3177,inactive,CG5707,SID104188365
56603,55264,,6745,4144,inactive,Cp15 (Chorion protein 15),SID104190910
83830,58997,,3340,2157,inactive,CG1233,SID104188061
1.06e5,6.26e5,94689,2677,29811,inactive,Bap111 (Brahma associated protein 111kD),SID104198211
1.09e5,,,1531,5528,inactive,geko,SID104189836
1.36e5,,,1026,6916,inactive,geko,SID104189837
70969,81930,,2307,2321,inactive,Nepl12 (Neprilysin-like 12),SID104196203
1.75e5,1.12e5,,6890,5019,inactive,"fbp (fructose-1,6-bisphosphatase)",SID104181869
68221,2.18e5,,2055,8181,inactive,xmas-1 (retired record),SID104200178
74810,41496,,1952,2816,inactive,CG17528,SID104187553
64621,32019,,4208,1506,active,mnb (minibrain),SID104199850
82716,2.59e5,,2682,10457,inactive,mnb (minibrain),SID104200145
33097,73035,98295,4742,6609,inactive,GluRIB (Glutamate receptor IB),SID104190050
20593,46816,71570,3776,4532,inactive,GluRIB (Glutamate receptor IB),SID104190969
58195,54205,,2647,2460,inactive,pnut (peanut),SID104187458
62898,58422,,3162,2420,inactive,Hr39 (Hormone receptor-like in 39),SID104183138
6.11e5,2.69e5,,33020,6100,inactive,Tdg (Thymine DNA glycosylase),SID104196911
82779,2.43e5,,2891,8561,inactive,Tdg (Thymine DNA glycosylase),SID104196961
4.85e5,2.21e5,,30231,5664,inactive,AlkB,SID104198907

Already shown: 6 of the entries above.
"firefly Hh reporter signal, replicate 1","firefly Hh reporter signal, replicate 2","firefly Hh reporter signal, replicate 3","Renilla reference signal, replicate 1","Renilla reference signal, replicate 2",Outcome,predicted target,PubChem SID
1.09e5,,,1531,5528,inactive,geko,SID104189836
1.36e5,,,1026,6916,inactive,geko,SID104189837
70969,81930,,2307,2321,inactive,Nepl12 (Neprilysin-like 12),SID104196203
1.75e5,1.12e5,,6890,5019,inactive,"fbp (fructose-1,6-bisphosphatase)",SID104181869
68221,2.18e5,,2055,8181,inactive,xmas-1 (retired record),SID104200178
74810,41496,,1952,2816,inactive,CG17528,SID104187553

The listing continues.
"firefly Hh reporter signal, replicate 1","firefly Hh reporter signal, replicate 2","firefly Hh reporter signal, replicate 3","Renilla reference signal, replicate 1","Renilla reference signal, replicate 2",Outcome,predicted target,PubChem SID
81584,1.37e5,,2349,3223,inactive,Desi (Desiccate),SID104194701
1.02e5,1.21e5,,4492,5045,inactive,CG3544,SID104180405
1.81e5,2.02e5,,4548,10418,inactive,Cyp6t2Psi (pseudo),SID104181632
68482,52921,,3453,2613,inactive,CG10333,SID104181828
99539,2.54e5,,3229,10221,inactive,Yp3 (Yolk protein 3),SID104200094
33211,37764,,2454,2554,active,Not3 (CCR4-NOT transcription complex subunit 3),SID104184700
2.09e5,3.38e5,,3472,9442,active,ptc (patched),SID104184909
1.30e5,74402,,2066,4928,active,ptc (patched),SID104187461
66497,41991,,3264,1968,inactive,"Smyd4-1 (SET and MYND domain containing, class 4, member 1)",SID104186577
48740,2.02e5,,12476,4384,inactive,CG31068,SID104193612
87648,78073,,2379,1978,inactive,GABA-B-R3 (metabotropic GABA-B receptor subtype 3),SID104180353
1.42e5,5.79e5,60944,3773,36066,inactive,Sec61beta (Sec61 beta subunit),SID104187340
5.39e5,97305,,4820,4820,inactive,FLASH (FLICE-associated huge protein),SID104186664
28716,55866,,2594,4258,inactive,CG4476,SID104190216
60813,2.53e5,,1736,9605,inactive,Ir7f (Ionotropic receptor 7f),SID104197804
5.50e5,80562,,29269,2736,inactive,CG7685,SID104196077
1.78e5,3.64e5,,5450,15803,inactive,CG43188,SID104185052
